Our source for the binding values is patent publication CN113912731A.

Sequences of proteins named here, by UniProt entry; tags and fusion partners are left off. A change or cut given only in a name is not applied to a line headed by its entry. Residues count along the entry.
UniProt Q08830, residues 23-312: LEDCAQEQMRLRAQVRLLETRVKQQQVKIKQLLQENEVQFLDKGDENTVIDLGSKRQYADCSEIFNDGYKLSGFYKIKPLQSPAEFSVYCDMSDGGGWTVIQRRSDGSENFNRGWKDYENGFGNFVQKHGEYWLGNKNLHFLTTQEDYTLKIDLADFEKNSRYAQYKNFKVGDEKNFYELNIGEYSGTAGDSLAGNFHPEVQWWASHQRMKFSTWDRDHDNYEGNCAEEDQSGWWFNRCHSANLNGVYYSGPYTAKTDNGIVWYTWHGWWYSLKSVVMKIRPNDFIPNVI

The experiment concerns the target 人FGL1-his蛋白(Sinobio;Cat:13484-H08B) (human) (UniProt Q08830). The experiment in a line: ELISA, plate coated with human FGL1-his. Background: ELISA stands for enzyme-linked immunosorbent assay.

These are yes or no findings as the source states them, for the method shown. Some binding calls cover weakened binding; strength is not graded here.

B1: SH-01 (antibody, V domains shown, not shown: large carriers)
VH: EVQLQQSGPELVKPGASVKISCKASGYTFTDYYINWVKQKPGQGLEWIGWIYPGSGNTDHNEKFKDKATLTVDTSSSTAYMQLSSLTSEDTAVYFCLRFLLRSAYWGQGTLVTVSA
VL: DIVMTQSQKFMSTSVGDRVSITCKASQNVGTAVAWYQQKPGQSPKLLIYSASNRYTGVPDRFTGSGSGTDFTLTISNMQSEDLADYFCQQYSSYPLTFGAGTKLELK
B1: the binding entry is “binds”.

B2: SH-02 (antibody, V domains shown, not shown: large carriers)
VH: B1 VH
VL: DIQMTQSPSSLSASLGERVSLTCRASQEISGYLSWLQQKPDGTIKRLIYAASTLDSGVPKRFSGSRSGSDYSLTISSLESEDFADYYCLQYASYPWTFGGGTKLEIK
B2: the binding entry is “binds”.
